Measurements reported in paper PMC7988496, “Sphingomyelin synthase-related protein generates diacylglycerol via the hydrolysis of glycerophospholipids in the absence of ceramide” (The Journal of Biological Chemistry, 2021).
Results are given in words; binding and its absence hold for the method and conditions named. Tags and fused reporters may be left off the sequences shown.

Biological target: 6× His-SMSr-ΔSAMD (human sphingomyelin synthase-related protein lacking the sterile α motif domain) (human) (UniProt Q96LT4)
Experiment: SEC; ENrich SEC 650 column after Ni-affinity chromatography; 20 mM Tris-HCl (pH 7.4), 200 mM NaCl, 5% glycerol, 0.5 mM dithiothreitol, 0.018% NP-40; calibrated with ferritin, catalase, bovine serum albumin, ovalbumin and carbonic anhydrase; both purified

binding: no binding
B1: 6× His-SMSr-ΔSAMD (human sphingomyelin synthase-related protein lacking the sterile α motif domain) (domain or fragment, UniProt Q96LT4 79-413)
chain: HIDVLEEMGYNSDSPMGSMTPFISALQSTDWLCNGELSHDCDGPITDLNSDQYQYMNGKNKHSVRRLDPEYWKTILSCIYVFIVFGFTSFIMVIVHERVPDMQTYPPLPDIFLDSVPRIPWAFAMTEVCGMILCYIWLLVLLLHKHRSILLRRLCSLMGTVFLLRCFTMFVTSLSVPGQHLQCTGKIYGSVWEKLHRAFAIWSGFGMTLTGVHTCGDYMFSGHTVVLTMLNFFVTEYTPRSWNFLHTLSWVLNLFGIFFILAAHEHYSIDVFIAFYITTRLFLYYHTLANTRAYQQSRRARIWFPMFSFFECNVNGTVPNEYCWPFSKPAIMKRL
